Measured values reported in patent US20090076047A1, “2-Substituted Hydroxylaminopyrimidine, Method for the Production and the Use Thereof in the Form of Pesticides” (priority 2005, published 2009).
Some entries share one result that the patent states for a list of compounds.

Experiments:
Assay type in all cases: in vivo
[1] = system: Pyrenophora [syn. Drechslera] teres; assay: Activity against net blotch of barley caused by Pyrenophora teres, 1 day protective application (greenhouse); conditions: 250 ppm, barley seedlings, assessed after 6 days, % of total leaf area, untreated control 90% infected
Puccinia recondita [2] = assay: Curative activity against brown rust of wheat caused by Puccinia recondita (greenhouse); conditions: 250 ppm, wheat sprayed 1 day after inoculation (curative), 7 days; untreated control 90% infected
Protocol: The solution was then made up to 100 ml with water. This stock solution was diluted to the active compound concentration stated below using the solvent/emulsifier/water mixture described. Curative Activity Against Brown Rust of Wheat Caused by Puccinia recondita Leaves of potted wheat seedlings of the cultivar “Kanzler” were inoculated with a spore suspension of brown rust (Puccinia recondita). The pots were then placed into a chamber with high atmospheric humidity (90-95%) at 20-22° C. for 24 hours. During this time, the spores germinated and the germ tubes penetrated into the leaf tissue. The next day, the infected plants were sprayed to runoff point with the active compound solution described above having the concentration of active compound stated below. After the spray coating had dried on, the test plants were cultivated in a greenhouse at temperatures between 20 and 22° C. and at 65 to 70% relative atmospheric humidity for 7 days. The extent of the rust fungus development on the leaves was then determined.

Puccinia recondita [3] = assay: Protective activity against Puccinia recondita on wheat (brown rust of wheat) (greenhouse); conditions: 250 ppm, wheat seedlings, inoculated next day, untreated control 90% infected
Phytophthora infestans = conditions: 250 ppm, tomato, protective, assessed after 6 days; untreated control 90% infected
Alternaria solani = assay: Activity against early blight on tomatoes caused by Alternaria solani (greenhouse, protective spray); conditions: tomato leaves sprayed 1 day before infection, assessed after 5 days, untreated control 90% infected

SMILES	infection [1]	infection (Puccinia recondita [3])	other results
CON(C)c1nc(C(N)=O)nc(Cl)c1-c1ccc(F)cc1Cl [Compound 11]	at most 20%		
CON(c1nc(C#N)nc(Cl)c1-c1c(F)cccc1F)C(C)C [Compound 37]		at most 15%	infection (Puccinia recondita [2]): at most 10%
COCCN(OC)c1nc(C#N)nc(Cl)c1-c1c(F)cc(F)cc1F [Compound 28]		at most 15%	infection (Phytophthora infestans): at most 20%
CON=C(N)c1nc(Cl)c(-c2c(F)cccc2Cl)c(N(CC2CC2)OC)n1 [Compound 33]			infection (Alternaria solani; 63 ppm): at most 7%
CON(c1nc(C#N)nc(Cl)c1-c1c(F)cc(F)cc1F)C(C)C [Compound 24]			infection (Phytophthora infestans): at most 20%
COCCN(OC)c1nc(C(N)=NOC)nc(Cl)c1-c1c(F)cc(F)cc1F [Compound 29]			infection (Phytophthora infestans): at most 20%
CON=C(N)c1nc(Cl)c(-c2c(F)cccc2Cl)c(N(CC(C)C)OC)n1 [Compound 46]		at most 15%	
CON=C(N)c1nc(Cl)c(-c2ccc(OC)cc2Cl)c(N(C)OC)n1 [Compound 13]	at most 20%		
CON=C(N)c1nc(Cl)c(-c2c(F)cc(F)cc2F)c(N(Cc2ccccc2)OC)n1 [Compound 43]			infection (Alternaria solani; 250 ppm): at most 20%
CON=C(N)c1nc(Cl)c(-c2c(F)cc(F)cc2F)c(N2CC(C)CCO2)n1 (stereo not drawn) [Compound 49]		at most 15%	
CON(C)c1nc(-n2cncn2)nc(Cl)c1-c1ccc(F)cc1Cl [Compound 7]	at most 20%		infection (Alternaria solani; 250 ppm): at most 20%
CON=C(N)c1nc(Cl)c(-c2c(F)cccc2Cl)c(N(OC)C(C)C)n1 [Compound 34]			infection (Alternaria solani; 63 ppm): at most 7%
CON=C(N)c1nc(Cl)c(-c2c(F)cccc2F)c(N(CC2CC2)OC)n1 [Compound 38]		at most 15%	infection (Puccinia recondita [2]): at most 10%
CCC(C)N(OC)c1nc(C(N)=NOC)nc(Cl)c1-c1c(F)cccc1Cl (stereo not drawn) [Compound 45]		at most 15%	infection (Puccinia recondita [2]): at most 10%
C=CCN(OC)c1nc(C(N)=NOC)nc(Cl)c1-c1c(F)cc(F)cc1F [Compound 41]		at most 15%	infection (Alternaria solani; 250 ppm): at most 20%
NC(=O)c1nc(Cl)c(-c2c(F)cc(F)cc2F)c(N2CCCCO2)n1 [Compound 30]			infection (Alternaria solani; 250 ppm): at most 20%
CCCN(OC)c1nc(C(N)=NOC)nc(Cl)c1-c1c(F)cc(F)cc1F [Compound 44]		at most 15%	infection (Puccinia recondita [2]): at most 10%
CC(C)ON(C)c1nc(-n2cncn2)nc(Cl)c1-c1ccc(F)cc1Cl [Compound 12]	at most 20%		
CON=C(N)c1nc(Cl)c(-c2ccc(F)cc2Cl)c(N(C)OC)n1 [Compound 8]	at most 20%		infection (Alternaria solani; 250 ppm): at most 20%

SMILES	infection [1]	infection (Puccinia recondita [3])	other results
CN(OCC1CC1)c1nc(-n2cncn2)nc(Cl)c1-c1ccc(F)cc1Cl [Compound 15]	at most 20%		infection (Alternaria solani; 250 ppm): at most 20%
CON=C(N)c1nc(Cl)c(-c2c(F)cccc2Cl)c(N2CCCC(C)O2)n1 (racemic) [Compound 36]		at most 15%	infection (Alternaria solani; 250 ppm): at most 20%
CON=C(N)c1nc(Cl)c(-c2c(F)cc(F)cc2F)c(NOCC2CC2)n1 [Compound 4]	at most 20%		
CON(CC1CC1)c1nc(C#N)nc(Cl)c1-c1c(F)cccc1Cl [Compound 31]			infection (Phytophthora infestans): at most 20%
Fc1cc(F)c(-c2c(Cl)nc(-n3cncn3)nc2N2CCCCO2)c(F)c1 [Compound 20]	at most 20%		
CON=C(N)c1nc(Cl)c(-c2c(F)cccc2F)c(N(OC)C(C)C)n1 [Compound 39]		at most 15%	infection (Puccinia recondita [2]): at most 10%
CON=C(N)c1nc(Cl)c(-c2c(F)cc(F)cc2F)c(N(C)OC)n1 [Compound 5]	at most 20%		
NC(=O)c1nc(Cl)c(-c2c(F)cc(F)cc2F)c(N2CCCO2)n1 [Compound 19, 4-Chloro-6-(isoxazolidin-2-yl)-5-(2,4,6-trifluorophenyl)-2-pyrimidinecarboxmide]	at most 20%	at most 15%	
CON=C(N)c1nc(Cl)c(-c2c(F)cc(F)cc2F)c(N2CCCCO2)n1 [Compound 22]	at most 20%		
CC(C)ON(C)c1nc(C(N)=O)nc(Cl)c1-c1ccc(F)cc1Cl [Compound 14]	at most 20%		
COCN(OC)c1nc(C(N)=NOC)nc(Cl)c1-c1c(F)cccc1Cl [Compound 48]		at most 15%	
Fc1cc(F)c(-c2c(Cl)nc(-n3cncn3)nc2N2CCCO2)c(F)c1 [Compound 18]	at most 20%		infection (Alternaria solani; 250 ppm): at most 20%
CON=C(N)c1nc(Cl)c(-c2c(F)cc(F)cc2F)c(N(OC)C(C)C)n1 [Compound 26]	at most 20%		
CON(CC1CC1)c1nc(C#N)nc(Cl)c1-c1c(F)cc(F)cc1F [Compound 25, 4-Chloro-2-cyano-6-(N-cyclopropylmethyl-N-methoxyamino)-5-(2,4,6-trifluorophenyl)pyrimidine]			infection (Phytophthora infestans): at most 20%
CON=C(N)c1nc(Cl)c(-c2c(F)cc(F)cc2F)c(N2CCCC(C)O2)n1 (racemic) [Compound 23]		at most 15%	
CCN(OC)c1nc(C(N)=NOC)nc(Cl)c1-c1c(F)cc(F)cc1F [Compound 42]		at most 15%	infection (Alternaria solani; 250 ppm): at most 20%
CON(C)c1nc(C(N)=NO)nc(Cl)c1-c1c(F)cc(F)cc1F [Compound 3]	at most 20%		
CON=C(N)c1nc(Cl)c(-c2c(F)cccc2Cl)c(N(OC)C2CCCC2)n1 [Compound 47]		at most 15%	
